## Screening data

The results are deposited in PubChem (AID1053133; Broad Institute, 2014).

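Plate-reader measure of the Venus reporter marking one vaccinia stage in infected cells (the cell line is not named here); read time unknown. The test concentration is not given here. Percent change in Venus reporter signal; lower (more negative) values mean stronger inhibition of that viral stage.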

Values are in %. The controls that fix the scale are not given here. Common to all entries: measured here: Venus reporter, other viral stage. Part of the compounds only, not a random draw; the main read-out is not listed here.

| Compound | activity change (Venus) (%) |
|---|---|
| `Cc1cccc(S(=O)(=O)N2CC[C@@H]3[C@H](CO)N(C)c4ccc(-c5cccc(C#N)c5)cc4[C@@H]32)c1` | -32.31 |
| `COc1cc(CN2C[C@@H]3N[C@H](C2)C3c2ccc(-c3cccc(OC)c3)cc2)cc(OC)c1` (stereo not given in full) | -90.58 |
| `C[C@H](CO)N1C[C@H](C)[C@@H](CN(C)Cc2ccc(C(F)(F)F)cc2)Oc2ccc(NC(=O)Nc3ccc(F)cc3)cc2C1=O` | -39.01 |
| `C[C@@H]1CCCCO[C@H](CN(C)Cc2ccccc2)[C@H](C)CN([C@H](C)CO)C(=O)c2cc(NC(=O)C3CCCCC3)ccc2O1` | -40.79 |
| `Cc1cccc(-c2ccc([C@H]3[C@@H](CO)N4CCCCN(S(=O)(=O)c5cccc(C)c5)C[C@H]34)cc2)c1` | -32.58 |
| `C[C@@H]1CCCCO[C@H](CN(C)C(=O)C2CCCCC2)[C@H](C)CN([C@@H](C)CO)C(=O)c2cc(NC(=O)Nc3ccc(C(F)(F)F)cc3)ccc2O1` | -13.95 |
| `C[C@@H]1CN([C@H](C)CO)C(=O)Cc2cc(NS(C)(=O)=O)ccc2O[C@@H]1CN(C)Cc1ccc(C(F)(F)F)cc1` | -40.33 |
| `C[C@H](NC(=O)N(C)C[C@@H]1OCc2ccccc2-c2c(n(C)c3ccccc23)C(=O)N([C@@H](C)CO)C[C@H]1C)c1ccccc1` | -38.04 |
| `Cc1noc(C)c1S(=O)(=O)N(C)C[C@H]1OCCCC[C@@H](C)Oc2ccc(NC(=O)C3CCCCC3)cc2C(=O)N([C@H](C)CO)C[C@H]1C` | -36.52 |
| `C[C@H]1CN([C@@H](C)CO)S(=O)(=O)c2ccc(C#CC3CC3)cc2O[C@@H]1CN(C)Cc1ccccn1` | -38.51 |
| `C[C@@H]1CN([C@@H](C)CO)C(=O)c2cc(NC(=O)c3ccccc3)ccc2O[C@@H](C)CCCCO[C@@H]1CN(C)CC1CCCCC1` | -29.29 |
| `C[C@H]1CN([C@@H](C)CO)C(=O)c2cccc(NC(=O)Nc3ccc(F)cc3)c2O[C@H]1CN(C)Cc1ccc(Cl)c(Cl)c1` | -59.32 |
| `O=C(C[C@H]1CC[C@@H]2[C@H](COC[C@@H](O)CN2Cc2cccc(C(F)(F)F)c2)O1)NCc1ccc(Cl)cc1` | -41.8 |
| `C[C@H](CO)N1C[C@H](C)[C@H](CN(C)Cc2cccc(C(F)(F)F)c2)Oc2ncc(/C=C/c3ccccc3)cc2C1=O` | -42.4 |
| `COc1ccc(CN(C)C[C@@H]2OCCCC[C@H](C)Oc3ccc(NS(=O)(=O)c4ccc(F)cc4)cc3C(=O)N([C@H](C)CO)C[C@H]2C)cc1` | -41.31 |
| `C[C@@H]1CN([C@@H](C)CO)S(=O)(=O)c2ccc(Br)cc2O[C@@H]1CN(C)Cc1ccccc1` | -28.08 |
| `COc1ccc(CN(C)C[C@@H]2OCCCC[C@H](C)Oc3ccc(NC(=O)Nc4ccc(F)cc4)cc3C(=O)N([C@@H](C)CO)C[C@@H]2C)cc1` | -55.06 |
| `C[C@@H]1CN([C@H](C)CO)C(=O)c2cc(NC(=O)CCC(F)(F)F)ccc2O[C@@H](C)CCCCO[C@H]1CN(C)Cc1ccc(Cl)c(Cl)c1` | -35.51 |
| `CCCNC(=O)N1[C@@H](C#N)[C@@H](c2ccc(C#Cc3cccc(F)c3)cc2)[C@@H]1CO` | -30.91 |
| `C[C@H]1CCCCO[C@H](CN(C)S(=O)(=O)c2cccs2)[C@@H](C)CN([C@@H](C)CO)C(=O)c2cc(NS(=O)(=O)c3cccs3)ccc2O1` | -26.42 |
| `COc1ccc(CN2[C@H](CO)[C@H]3c4ccccc4N(C(=O)CC(F)(F)F)C[C@H]32)cc1` | -64.57 |
| `O=C(Nc1ccccc1F)N1CC(=O)N2[C@H](CO)[C@@H](c3ccc(C#CC4CCCC4)cc3)[C@@H]2C1` | -47.16 |
| `C[C@H](CO)N1C[C@H](C)[C@H](CN(C)CC2CC2)Oc2ccc(NC(=O)Nc3cccc4ccccc34)cc2CC1=O` | -28.63 |
| `COc1ccc(NC(=O)N(C)C[C@@H]2Oc3cc(-c4ccc(C)cc4)ccc3S(=O)(=O)N([C@H](C)CO)C[C@@H]2C)cc1` | -53.48 |
| `C[C@H]1CCCCO[C@@H](CN(C)Cc2ccc3c(c2)OCO3)[C@@H](C)CN([C@@H](C)CO)C(=O)c2cc(NS(=O)(=O)c3ccccc3)ccc2O1` | -40.62 |
| `C[C@@H]1CN([C@@H](C)CO)C(=O)c2c(c3ccccc3n2C)-c2ccccc2CO[C@H]1CN(C)Cc1ccc(O)cc1` | -40.36 |
| `C[C@H](CO)N1C[C@H](C)[C@H](CN(C)CC2CCCCC2)Oc2c(NC(=O)Nc3ccccc3)cccc2C1=O` | -38.11 |
| `CC(C)CC#Cc1ccc2c(c1)O[C@@H](CN(C)Cc1cccnc1)[C@H](C)CN([C@H](C)CO)S2(=O)=O` | -66.57 |
| `C[C@H]1CN([C@@H](C)CO)C(=O)c2cc(/C=C/c3ccccc3)cnc2O[C@H]1CN(C)C(=O)Nc1ccc(C(F)(F)F)cc1` | -89.45 |
| `O=C(Nc1ccc(F)cc1)N1CCCCN2[C@@H](CO)[C@H](c3ccc(-c4cccc(F)c4)cc3)[C@@H]2C1` | -80.51 |
| `C[C@H](CO)N1C[C@H](C)[C@@H](CN(C)S(=O)(=O)c2ccccc2)OCCCC[C@H](C)Oc2ccc(NC(=O)Cc3ccccc3)cc2C1=O` | -29.84 |
| `C[C@@H]1CN([C@H](C)CO)C(=O)c2cc(NS(=O)(=O)c3ccc(Cl)cc3)ccc2O[C@@H](C)CCCCO[C@H]1CN(C)C(=O)C1CCCCC1` | -83.01 |
| `COc1ccc(CN(C)C[C@H]2OCCCC[C@@H](C)Oc3ccc(NC(=O)Nc4ccc(C(F)(F)F)cc4)cc3C(=O)N([C@H](C)CO)C[C@H]2C)cc1` | -55.03 |
| `COc1ccc(NC(=O)Nc2ccc3c(c2)C(=O)N([C@@H](C)CO)C[C@@H](C)[C@@H](CN(C)S(=O)(=O)c2cccs2)O3)cc1` | -21.68 |
| `Cc1ccc(S(=O)(=O)N(C)C[C@H]2OCCCC[C@@H](C)Oc3ccc(NS(=O)(=O)c4c(C)noc4C)cc3C(=O)N([C@@H](C)CO)C[C@@H]2C)cc1` | -34.94 |
| `COc1ccc([Si](C)(C)[C@@H]2[C@@H](CCO)O[C@]3(C(=O)N(Cc4ccc(NC(=O)[C@H](C)O)cc4)c4ccccc43)[C@H]2C)cc1` | -67.71 |
| `COc1ccc2c3c(n(C)c2c1)[C@H](CO)NCC31CCN(CC2CCCC2)CC1` | -34.7 |
| `C/C=C/c1ccc([C@H]2[C@@H](C#N)N(C(=O)NC3CCCC3)[C@H]2CO)cc1` | -24.31 |
| `C/C=C/c1ccc([C@@H]2[C@@H](CO)N3C(=O)CN(C(=O)Nc4ccc(F)cc4)C[C@@H]23)cc1` | -21.63 |
| `O=C(C[C@@H]1CC[C@H]2[C@@H](COC[C@H](O)CN2C(=O)Nc2ccc(C(F)(F)F)cc2)O1)NCC1CCCCC1` | -32.52 |
| `C/C=C/c1ccc([C@@H]2[C@H](CO)N3CCCCN(C(=O)Nc4ccc(OC)cc4)C[C@@H]23)cc1` | -42.57 |
| `C[C@H](CO)N1C[C@H](C)[C@H](CN(C)C(=O)Nc2ccc(C(F)(F)F)cc2)Oc2c(NC(=O)Nc3ccc4c(c3)OCO4)cccc2C1=O` | -71.09 |
| `C[C@@H]1CN([C@H](C)CO)S(=O)(=O)c2ccc(C#Cc3cccc(F)c3)cc2O[C@H]1CN(C)C(=O)CN1CCOCC1` | -23.21 |
| `Cc1cccc(S(=O)(=O)N2CC[C@@H]3[C@@H](CO)N(C)c4ccc(-c5ccccc5F)cc4[C@@H]32)c1` | -44.71 |
| `C[C@@H]1CN([C@H](C)CO)S(=O)(=O)c2ccc(C#Cc3ccc(F)cc3)cc2O[C@H]1CN(C)S(C)(=O)=O` | -43.27 |
| `Cc1ccc(S(=O)(=O)N(C)C[C@@H]2OCCCC[C@@H](C)Oc3ccc(NS(=O)(=O)c4ccccc4)cc3C(=O)N([C@@H](C)CO)C[C@H]2C)cc1` | -54.03 |
| `CC(C)C#Cc1ccc2c(c1)O[C@H](CN(C)C(=O)c1cccc(F)c1)[C@@H](C)CN([C@H](C)CO)S2(=O)=O` | -51.46 |
| `C[C@H]1CN([C@@H](C)CO)C(=O)c2cc(C#Cc3ccccc3)cnc2O[C@H]1CN(C)S(=O)(=O)c1ccccc1F` | -28.48 |
| `C[C@@H]1CCCCO[C@H](CN(C)Cc2ccccc2)[C@H](C)CN([C@@H](C)CO)C(=O)c2cc(NC(=O)Nc3ccc(C(F)(F)F)cc3)ccc2O1` | -27.58 |
| `C[C@@H]1CN([C@@H](C)CO)S(=O)(=O)c2ccc(-c3ccccc3)cc2O[C@@H]1CN(C)S(=O)(=O)c1ccccc1F` | -56.73 |
| `COc1cccc(C#Cc2ccc3c(c2)O[C@H](CN(C)C(=O)CN2CCOCC2)[C@H](C)CN([C@H](C)CO)S3(=O)=O)c1` | -32.35 |

6 of the entries, repeated:

C[C@@H]1CN([C@H](C)CO)C(=O)Cc2cc(NS(C)(=O)=O)ccc2O[C@@H]1CN(C)Cc1ccc(C(F)(F)F)cc1 gave activity change (Venus) -40.33%.
C[C@H]1CN([C@@H](C)CO)C(=O)c2cc(C#Cc3ccccc3)cnc2O[C@H]1CN(C)S(=O)(=O)c1ccccc1F gave activity change (Venus) -28.48%.
O=C(C[C@@H]1CC[C@H]2[C@@H](COC[C@H](O)CN2C(=O)Nc2ccc(C(F)(F)F)cc2)O1)NCC1CCCCC1 gave activity change (Venus) -32.52%.
COc1ccc(NC(=O)Nc2ccc3c(c2)C(=O)N([C@@H](C)CO)C[C@@H](C)[C@@H](CN(C)S(=O)(=O)c2cccs2)O3)cc1 gave activity change (Venus) -21.68%.
C[C@@H]1CN([C@H](C)CO)C(=O)c2cc(NC(=O)CCC(F)(F)F)ccc2O[C@@H](C)CCCCO[C@H]1CN(C)Cc1ccc(Cl)c(Cl)c1 gave activity change (Venus) -35.51%.
C[C@H]1CN([C@@H](C)CO)C(=O)c2cc(/C=C/c3ccccc3)cnc2O[C@H]1CN(C)C(=O)Nc1ccc(C(F)(F)F)cc1 gave activity change (Venus) -89.45%.